# Some of the results follow. The main result of the screen is listed elsewhere. These columns were measured beside it and carry no call. The list favours compounds with an active or inconclusive main result. Potencies come from curve fits of mixed quality, noted in brackets.
# Test: qHTS Assay for Lipid Storage Modulators in Drosophila S3 Cells;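 for cell number change: cells counted by Cell Tracker Red CMTPX staining in the red channel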
# Details: BODIPY lipid droplet fluorescence, 18-24 h; for cell number change: measured here: cell count max response, cells fed with added oleic acid
# Summary of the method: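 Drosophila S3 cells got compounds at several concentrations plus oleic acid (400 uM solution). Laser-scanning cytometry with 488 nm excitation read lipid droplets at 500-530 nm and cells at 575-640 nm. Percent activity was relative to 20 uM Triacsin C.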
# [1] = measured here: cell number channel AC50, cells fed with added oleic acid
# [2] = measured here: lipid fluorescence (Fed channel) AC50, cells fed with added oleic acid
Compound,AC50 [1],AC50 [2],cell number change
COCCN(Cc1cc2cccc(C)c2[nH]c1=O)C(=O)c1ccccc1,"2.06 µM [rising, partial curve]","2.59 µM [rising, partial curve]",–
CCOc1ccc(S(=O)(=O)Nc2cccc(N(C)S(C)(=O)=O)c2)cc1,–,"29.1 µM [falling, single point]",-23.3%
CC(C)C(=O)OCC(=O)NCc1ccccc1Cl,"3.66 µM [falling, full curve]","25.9 µM [falling, single point]",-30.5%
CCCc1cc(Nc2ccccc2)n2ncnc2n1,–,"23.1 µM [rising, single point]",0.275%
Cc1cc([N+](=O)[O-])c(C)cc1-c1ccc(/C=N/n2cnnc2)o1,–,"6.51 µM [falling, single point]",-9.52%
COc1ccc(OC)c(CCNC(=O)CCCc2nnc3n(C)c(=O)c4sccc4n23)c1,–,"1.84 µM [falling, full curve]",–
Cc1cccc(-c2cc3c(nn2)-c2ccccc2C3=O)c1,"0.461 µM [rising, full curve, poor fit]",–,14.2%
O=c1c(Cl)c(N/N=C/c2ccc(Cl)cc2)cnn1-c1ccccc1,"29.1 µM [falling, single point]","29.1 µM [falling, single point]",-37.7%
O=C(NCc1cccc2ccsc12)c1cccs1,–,"4.11 µM [rising, full curve]",14.5%
CC(NC(=O)COc1ccccc1Cl)c1ccccc1 (stereo unspecified),–,"14.6 µM [falling, partial curve, poor fit]",0.826%
CN(C(=O)COc1ccccc1C(=O)NCCOc1ccccc1)c1ccccc1,"18.4 µM [falling, partial curve]","29.1 µM [falling, partial curve, poor fit]",-64%
COc1cc(/C=C/C(=O)Nc2cccnc2)cc(OC)c1OC,–,"20.6 µM [falling, partial curve, poor fit]",-17.6%
COc1ccccc1CNC(c1ccccc1)c1ccccc1,–,–,-15.7%
CCSc1nnc(NC(=O)c2nc(-c3ccccc3)n(-c3ccccc3)n2)s1,–,"20.6 µM [falling, partial curve]",0.194%
c1csc(-c2nc(N3CCCCC3)no2)c1,–,"0.82 µM [falling, full curve]",-11.1%
CC(C)n1c(SCC(=O)Nc2ccc(N3CCOCC3)cc2)nnc1-c1ccco1,–,"0.206 µM [rising, single point]",-16.4%
C/C(=N\Nc1cc(N2CCCCC2)nc(C)n1)c1ccc(Br)cc1,"16.4 µM [falling, single point]",–,-47%
COc1ccc2[nH]cc(CCNC(=O)Nc3ccccc3C)c2c1,–,–,-8.76%
Cc1ccc(C(=O)OCc2nnc(-c3ccccc3)o2)s1,"29.1 µM [rising, single point]",–,75%
CCOC(=O)c1[nH]cnc1C(=O)Nc1cccc(Cl)c1,"29.1 µM [falling, single point]",–,-43%
CCOC(=O)Cc1csc(NC(=S)NC(=O)c2ccccc2)n1,–,"0.731 µM [rising, full curve]",12.3%
Cc1cccc(N2C(S)=C(C#N)C(=O)NC23CCCCC3)c1,"1.64 µM [rising, partial curve]","2.06 µM [rising, partial curve]",-28.9%
COc1ccc(NC(=O)CCC(=O)c2ccc(-c3ccccc3)cc2)cc1,"0.00517 µM [falling, full curve, poor fit]",–,56%
Cc1cc(C)cc(OCCn2nnc3ccccc32)c1,–,"29.1 µM [falling, single point]",-9.39%
Cc1c(C(=O)N(C)C)sc(NC(=O)c2cccc([N+](=O)[O-])c2)c1C#N,"20.6 µM [falling, partial curve]","16.4 µM [falling, partial curve]",-43.2%
O=c1[nH]c(=S)[nH]c2[nH]c(=S)[nH]c12,–,–,-12.7%
CCOc1ccccc1N1CC(C(=O)NCCOc2ccccc2OC)CC1=O (stereo unspecified),–,"11.6 µM [rising, partial curve, poor fit]",-8.78%
Cc1ccc(Cl)cc1N1CCN(C(=O)Cc2csc(Nc3nc(=S)[nH]c4ccccc34)n2)CC1,"0.00411 µM [rising, partial curve, poor fit]",–,–

# Shown tab-delimited: part of the list above
Compound	AC50 [1]	AC50 [2]	cell number change
COCCN(Cc1cc2cccc(C)c2[nH]c1=O)C(=O)c1ccccc1	2.06 µM [rising, partial curve]	2.59 µM [rising, partial curve]	–
Cc1c(C(=O)N(C)C)sc(NC(=O)c2cccc([N+](=O)[O-])c2)c1C#N	20.6 µM [falling, partial curve]	16.4 µM [falling, partial curve]	-43.2%
